# From PubChem BioAssay AID1671190 (National Center for Advancing Translational Sciences (NCATS), 2021)
# Protein sequences, listed by entry. Tags and fused reporters are not part of them. Lines headed by an entry give the natural chain unless they say otherwise; changes in a name come on top.
# UniProt P18054: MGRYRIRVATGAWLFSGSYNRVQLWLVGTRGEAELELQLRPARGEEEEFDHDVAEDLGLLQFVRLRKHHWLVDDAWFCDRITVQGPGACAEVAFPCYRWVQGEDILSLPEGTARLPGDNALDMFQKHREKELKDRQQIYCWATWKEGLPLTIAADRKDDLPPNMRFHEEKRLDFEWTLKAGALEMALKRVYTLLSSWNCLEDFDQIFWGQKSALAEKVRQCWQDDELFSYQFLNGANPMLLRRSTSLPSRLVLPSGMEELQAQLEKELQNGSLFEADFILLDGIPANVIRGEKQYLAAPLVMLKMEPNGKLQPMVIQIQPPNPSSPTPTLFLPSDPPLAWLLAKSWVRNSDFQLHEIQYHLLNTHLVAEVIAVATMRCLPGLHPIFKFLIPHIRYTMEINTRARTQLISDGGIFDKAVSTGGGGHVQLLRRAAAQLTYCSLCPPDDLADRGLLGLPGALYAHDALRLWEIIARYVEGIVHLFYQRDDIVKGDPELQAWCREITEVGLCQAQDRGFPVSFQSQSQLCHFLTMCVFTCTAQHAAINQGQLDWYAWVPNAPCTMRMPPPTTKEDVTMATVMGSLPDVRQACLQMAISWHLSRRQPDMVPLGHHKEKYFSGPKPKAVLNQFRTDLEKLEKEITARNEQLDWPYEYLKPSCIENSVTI
# Several values for one entry are separate records, joined by “and”; a condition that tells them apart may be missing. Equal entries are not always repeated. About 6,100 (1.1%) of roughly 580,000 compounds were called active. This list was built around the results that the source calls inconclusive (neither active nor inactive); the mix of calls is not that of the screen. Calls follow the shape of the dose curve; as a rule, active = well fitted inhibition curve with a large enough effect; inconclusive = small, poorly fitted or top-dose-only effect, or another doubt; inactive = no such curve, though single readings can be large or run the other way. A potency beside an inconclusive call is a rough fit, not a confirmed value.
# Target: Polyunsaturated fatty acid lipoxygenase ALOX12 (Homo sapiens) (UniProt P18054)
# Assay: Primary qHTS assay for inhibitors of human arachidonate 12S-lipoxygenase (ALOX12): Round 2
# Settings: purified 12hLO, xylenol orange hydroperoxide absorbance; activity change, negative = inhibition: at 108 µM (top of the series) unless noted
# How it was run: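 Purified human 12hLO at 150 nM in 25 mM Hepes, 0.01% Triton X-100, pH 7.0, preincubated 15 min at room temperature with compound. Reaction started with 40 uM arachidonic acid, 30 min at room temperature. Hydroperoxide measured by Fe-xylenol orange, 573/405 nm absorbance ratio.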
# % is scaled to controls: 0 for no effect and ±100 for the full control effect; potency is read from the fitted curve at half-maximal effect.
Structure (SMILES),Potency,"activity change, negative = inhibition"
CCc1cccc2c(C(CC(=O)N3CCc4ccccc4C3)c3cccc4c3OCO4)c[nH]c12 (stereo unspecified),"inconclusive: 17.8 µM [inhibitor, full curve, poor fit]",
C=CCN=c1scc(-c2ccccc2)n1/N=C/c1ccccn1,,inconclusive: -30.5% [inhibitor]
Cc1ccc(OC2(C(=O)NC(C)c3cn4ncsc4n3)CCNCC2)cc1 (stereo unspecified),active: 14.1 µM,
CCCCN1C=C(C(=O)OC)C(c2ccccc2C(F)(F)F)C(C(=O)OC)=C1,,inactive: -2.48%
CCOc1ccc(C(=O)Nc2ccccc2OCc2cc(=O)n3ccccc3n2)cc1,"inconclusive: 141 µM [inhibitor, partial curve, poor fit]",
CC(C)Cn1c(N)c(C(=O)CCl)c(=O)n(C)c1=O,"inconclusive: 39.8 µM [inhibitor, partial curve, poor fit]",
Cc1ccc(OCC(=O)N/N=C\c2ccc(-c3cccc(C(=O)O)c3)o2)c(C)c1,,inactive: 8.61%
CCCCSc1nc(SCC(=O)NCc2ccco2)c2c3c(sc2n1)COC(C)(CC)C3 (stereo unspecified),"inconclusive: 12.6 µM [inhibitor, full curve, poor fit]",
CCCC1(c2ccccc2)NC(=O)N(CC(=O)Nc2ccc3c(c2)OCCO3)C1=O (stereo unspecified),"inconclusive: 79.4 µM [inhibitor, single point]",
O=C1CC(c2ccccc2)N(C(=O)C2CC2)CCCNCCN1 (stereo unspecified),"inconclusive: 7.94 µM [inhibitor, full curve, poor fit]",
COc1cc(C(=S)N2CCN(c3cccc(Cl)c3)CC2)ccc1O,active: 44.7 µM,
CC1=NC(=O)C(N=Nc2cccc(O)c2)N1c1ccccc1 (stereo unspecified),"inconclusive: 22.4 µM [inhibitor, partial curve]",
COc1ccc2ccc(OCc3nc(C(=O)N(C)Cc4cc(C)no4)co3)cc2c1,,inactive: 31.4%
Cn1c(-[n+]2c(-c3ccccc3)cc(-c3ccccc3)cc2-c2ccccc2)nc2c([N+](=O)[O-])cccc21,"inconclusive: 44.7 µM [inhibitor, partial curve, poor fit]",
CC(C)C(NC(=O)c1ccc2c(c1)OCO2)C(=O)N/N=C\c1ccco1 (stereo unspecified),"inconclusive: 7.08 µM [inhibitor, full curve, poor fit]",
C=CCOC(=O)C(C#N)c1nc2ccccc2nc1N1CCCC1 (stereo unspecified),"inactive and inconclusive: 39.8 µM [inhibitor, partial curve]",
CCS(=O)(=O)N1CCN(Cc2c[nH]c3ccccc23)CC1,"inconclusive: 0.631 µM [inhibitor, full curve, poor fit]",
CCOC(=O)Cn1c(=O)n(-c2ccccc2OC)c2nc(-c3ccccc3F)nc(C(N)=O)c21,"inconclusive: 3.98 µM [inhibitor, full curve, poor fit]",
Cn1cnc([S+](=O)([O-])NC2CCN(C(=O)N3CC4CC(C3)[C@H]3CCCC(=O)N3C4)CC2)c1 (stereo partly specified),,inactive: 44.5%
CCn1c(=NC(=O)CS(=O)(=O)c2ccccc2)sc2cccc(OC)c21,"inconclusive: 112 µM [inhibitor, single point]",
CNC(=O)[C@@H](Cc1ccccc1)N1CCC[C@H]1C(=O)N1CCCCC1,"inconclusive: 10 µM [inhibitor, full curve]",

Structure (SMILES),Potency,"activity change, negative = inhibition"
CCN(CC)S(=O)(=O)c1ccc(NC(=S)NC(=O)CC(C)C)cc1,"inconclusive: 63.1 µM [inhibitor, partial curve, poor fit]",
CCc1ccc(-c2cn3c(n2)SCC3)cc1,"inconclusive: 50.1 µM [inhibitor, partial curve, poor fit]",
CCn1c(CCNC(=O)c2ccc(Cl)c(Cl)c2)nnc1SCCOc1ccc(OC)cc1,,inactive: -0.625%
CCn1nc(C(=O)N2CCN(CC(=O)NC3CC3)CC2)c2ccccc2c1=O,,inactive: 17.5%
CC(=O)c1ccc(N2CCN(C(=O)C3CCN(S(=O)(=O)c4cn(C)c(C)n4)CC3)CC2)cc1,,inactive: 16.9%
CCc1nc2nc(C)c(NS(=O)(=O)c3ccc(CC(C)C)cc3)c(=O)n2[nH]1,"inconclusive: 126 µM [inhibitor, single point]",
CC(C)CN1CCC1(C)C(=O)Nc1cccc(C#N)c1 (stereo unspecified),"inconclusive: 89.1 µM [inhibitor, single point]",
c1coc(-c2nn3c(Cn4nnc5ccccc54)nnc3s2)c1,,inactive: 0%
COc1ccc(-c2csc(C(C)(O)c3cccc(F)c3)n2)cc1 (stereo unspecified),"inconclusive: 39.8 µM [inhibitor, partial curve, poor fit]",
N#Cc1cccc(C(=O)N2CCN(C(=O)c3nnn4c3COC(c3ccccc3)C4)CC2)c1 (stereo unspecified),,inactive: 28.6%
COc1ccc(C(=O)NC(=S)Nc2ccccc2N2CCN(S(C)(=O)=O)CC2)cc1OC,"inconclusive: 11.2 µM [inhibitor, full curve, poor fit]",
CCN(CC)Cc1cnc2c(C(=O)N3CCCC3c3ccccn3)cnn2c1 (stereo unspecified),"inconclusive: 39.8 µM [inhibitor, full curve]",
Cn1cc(C(=O)N2CCN(S(=O)(=O)c3ccc(F)cc3F)CC2)c2ccccc21,,inactive: -5.19%
O=C(CCNC(=O)c1ccc(Br)cc1)OCc1ccccc1Cl,"inconclusive: 44.7 µM [inhibitor, partial curve, poor fit]",
Cc1ccc(Cn2nc(-c3ccccc3)nc2-c2ccccc2)cc1,"inconclusive: 100 µM [inhibitor, partial curve, poor fit]",
CCCCn1c(O)c(N=Nc2ccccn2)c2ccccc21,,inactive: -17%
COC(=O)CNC(=O)Nc1cc(C(=O)NCc2ccc(C(C)C)cc2)ccc1N1CCCC1,"inconclusive: 100 µM [inhibitor, single point]",
COc1ccc(NC(=O)CN2CCCCC2)cc1S(=O)(=O)N1CCCCC1,active: 2.51 µM,
Clc1ccc(/C=N/Nc2nn[nH]n2)cc1,"inconclusive: 14.1 µM [inhibitor, partial curve, poor fit]",
CC(C)N(CCNS(=O)(=O)c1ccc(Cl)cc1)C(C)C,"inconclusive: 44.7 µM [inhibitor, partial curve, poor fit]",
COc1ccc(OCc2nc3c4c(ncn3n2)-c2ccccc2CC42CCCC2)cc1,,inactive: -5.64%
CCOC(=O)/C(=C/c1ccco1)NC(=O)c1ccc(Br)o1,"inconclusive: 70.8 µM [inhibitor, partial curve, poor fit]",

Structure (SMILES),Potency,"activity change, negative = inhibition"
CN1[C@@H](CCC(=O)N2CCOCC2)CNC(=O)[C@@H]2[C@H]1CCN2C1CCOCC1,,inactive: 39% [at 176 µM]
O=[N+]([O-])c1cc(Br)c(Nc2ccccc2)c([N+](=O)[O-])c1,,inactive: 0%
CC(C)(C)c1ccc(C2=NC(C)(C)N(CC(=O)Nc3ccc(F)c(F)c3)C2=O)cc1,,inactive: -21.8%
COc1ccc(C2CC3(CC(C)(C)NC(=S)N3)Oc3cc(O)cc(C)c32)cc1 (stereo unspecified),"inconclusive: 44.7 µM [inhibitor, partial curve, poor fit]",
COc1ccc(N(CC(=O)Nc2ccccc2F)S(=O)(=O)c2ccc(C)c([N+](=O)[O-])c2)cc1,,inactive: -5.85%
CCNc1cc(Cl)nc(SC)n1,,inactive: 0%
CC(C(=O)c1ccc(Cl)cc1)C1(O)C(=O)Nc2ccc(Br)cc21 (stereo unspecified),"inconclusive: 25.1 µM [inhibitor, full curve, poor fit]",
COc1ccccc1NC(=O)c1cc2c(=O)n3ccccc3nc2n1Cc1ccccc1,"inconclusive: 31.6 µM [inhibitor, single point]",
COCCCN1C(=O)C(=O)/C(=C(/O)c2ccc(S(=O)(=O)N3CCOCC3)cc2)C1c1ccc(C(C)C)cc1 (stereo unspecified),"inconclusive: 56.2 µM [inhibitor, single point]",
CC(C)(C)c1ccc(C(=O)C2CCCN(C(=O)CN3CCCC3=O)C2)cc1 (stereo unspecified),,inactive: 0.21%
CC(=O)NC12CC3CC(C1)CC(C(=O)OCC(=O)Nc1ncc(Cl)c(C)c1Cl)(C3)C2,"inconclusive: 112 µM [inhibitor, partial curve, poor fit]",
CC(=O)Nc1ccc(NC(=O)c2cc3sccc3n2Cc2ccc(Cl)cc2)cc1,"inconclusive: 44.7 µM [inhibitor, partial curve, poor fit]",
Cc1[nH]cnc1C(=O)N1CCC2(CC1)CC(C(=O)O)N(C(=O)C1CC1)C2 (stereo unspecified),,inactive: 7.31%
CNC(=O)Nc1ccc(C2(C(=O)Nc3ccc4c(c3)CCC4)CCC2)cc1,,inactive: 38.4%
COc1ccc(S(=O)(=O)N2CCN(C(=O)C3CCC3)CC2)cc1,,inactive: -17.6%
CCOC(=O)C1=C(N)Oc2c(oc(CO)cc2=O)C1c1cc(Cl)ccc1Cl (stereo unspecified),"inconclusive: 50.1 µM [inhibitor, partial curve, poor fit]",
N#Cc1ccc(S(=O)(=O)Nc2ccccc2N2CCOCC2)cc1,"inconclusive: 28.2 µM [inhibitor, partial curve, poor fit]",
N#Cc1ccc2ccn(CC(=O)NCc3ccco3)c2c1,"inconclusive: 50.1 µM [inhibitor, full curve, poor fit]",
CC(C)C[C@H]1CNC(=S)N1CC1CCCN1C[C@H](Cc1ccc(O)cc1)N1C[C@H](Cc2ccccc2)N(CC2CCCCCC2)C1=S (stereo partly specified),"inconclusive: 44.7 µM [inhibitor, partial curve]",
S=C(NCCNC(=S)Nc1ccccc1Cl)Nc1ccccc1Cl,"inconclusive: 22.4 µM [inhibitor, partial curve, poor fit]",
CCNC(=O)c1cccc(NC(=O)/C=C/c2sccc2C)c1,"inconclusive: 31.6 µM [inhibitor, single point]",
COC(=O)[C@@H]1Cc2ncn(C(C)C)c2CN1S(=O)(=O)c1ccc(C#N)cc1,,inactive: 7.11% [at 176 µM]

# 4 of these compounds in another layout.
Structure (SMILES) | Potency | activity change, negative = inhibition
CC(C)(C)c1ccc(C(=O)C2CCCN(C(=O)CN3CCCC3=O)C2)cc1 (stereo unspecified) |  | inactive: 0.21%
CC(=O)NC12CC3CC(C1)CC(C(=O)OCC(=O)Nc1ncc(Cl)c(C)c1Cl)(C3)C2 | inconclusive: 112 µM [inhibitor, partial curve, poor fit] | 
CC(=O)Nc1ccc(NC(=O)c2cc3sccc3n2Cc2ccc(Cl)cc2)cc1 | inconclusive: 44.7 µM [inhibitor, partial curve, poor fit] | 
Cc1[nH]cnc1C(=O)N1CCC2(CC1)CC(C(=O)O)N(C(=O)C1CC1)C2 (stereo unspecified) |  | inactive: 7.31%
